Here are results for one compound from article PMC11110238, “Synthesis of novel carbazole hydrazine-carbothioamide scaffold as potent antioxidant, anticancer and antimicrobial agents” (BMC Chemistry, 2024).

In brackets after ≈: the same amount, converted by molar mass.

The subject of this test is Candida albicans. Kind of test: MIC and MBC test, C. albicans. The class given is cell-based. As for the experimental part:
Using Muller Hinton agar medium, the antibacterial activity was evaluated by using 24 h cultures of Escherichia coli, Staphylococcus aureus, and Candida albicans. E. coli and S. aureus were incubated in 1% Mueller Hinton Broth (MHB) liquid medium at 37 °C for 24 h; C. albicans was incubated in Sabouraud Dextrose Broth (SDB) at 30 °C for 48 h. MIC (Minimum Inhibitory Concentration) and MBC (Minimum Bactericidal Concentration) tests were performed to determine antimicrobial activity. This stage was carried out in a sterile cabinet.
The density of microorganisms in fresh cultures was adjusted according to the MacFarland 0.5 scale. For that, the microorganisms were centrifuged at 4000 rpm for 20 min. The supernatant was poured off, and the pellet was washed with 1 mL of 0.9% NaCl solution (physiological saline). The centrifugation was then repeated. The pellet was dissolved again with saline solution and adjusted to 0.5 MacFarland. In the experiment performed in a sterile 96-well plate, compound 4o was diluted ½ with DMSO to prepare a stock solution. […]
After incubation, 10 µl of the sample was taken, dropped onto the respective media, and incubated for 24 h at appropriate temperatures to clearly distinguish the residues left by the compound 4o and the growth of microorganisms. […] After incubation, MIC and MBC values were determined. […]

The compound `OC(Cn1cncn1)(Cn1cncn1)c1ccc(F)cc1F` [fluconazole, reference compound] had a minimal inhibitory concentration (MIC) of 1.63 µM (≈ 0.499 µg/mL).
